# Source: patent publication US20170260169A1, “INHIBITORS FOR STEROID RESPONSE ELEMENTS AND RNA POLYMERASE II AND RELATED METHODS” (priority 2007, published 2017)
# Some results were stated once for a whole list of compounds, not compound by compound. For at least one compound, name, drawing or mass did not settle the structure.
# Legend:
# [1] = Liver microsomal stability, mouse; details: mouse liver microsomes, with or without NADPH
# [2] = Multiple-dose subcutaneous injections, male C57BL/6J mice; format: in vivo; details: 1 mg/kg SC every 3 days, three injections; listed as compound 77
# Description: In addition to single dose injections, the effects of repeated dosing of polyamides 77-80 in mice were examined. In this experiment, 8 week-old male C57BL/6J mice (n=3 per dosing group) were treated with 1 mg/kg of polyamides 77-80 by subcutaneous injection every 3 days, for a cycle of three injections and then sacrificed two days after the final injection (FIG. 31A). As in the single dosing experiments, two mice per group were subjected to histopathology analysis and all blood samples were sent for analysis. […] These mice were promptly euthanized.
# Serum from treated animals were collected by retroorbital bleeding. […] All samples were sent for analysis at IDEXX-RADIL.
# [3] = Liver microsomal stability, human; details: human liver microsomes, with or without NADPH
# [4] = mouse, in vivo; cited from earlier work
smiles,measurement,setting,value
"CN(CCCNC(=O)c1cccc(C(=O)O)c1)CCCNC(=O)c1cc(NC(=O)c2cc(NC(=O)c3cc(NC(=O)c4nc(NC(=O)[C@H](N)CCNC(=O)c5cc(NC(=O)c6cc(NC(=O)c7cc(NC(=O)c8nccn8C)cn7C)cn6C)cn5C)cn4C)cn3C)cn2C)cn1C [Polyamide 1, ImPyPyPy-2-(R)H^2Nγ-ImPyPyPy-NHMe-IPA]",intact after 1 hour incubation,[1],> 90%
same,weight and physical morbidity,[2],minimal effect on animal weight
same,intact after 1 hour incubation,[3],> 90%
same,time bioavailable in serum after intravenous injection,[4],more than 24 hours
